Measured values: US20240092867A1
No constants are given. Whether binding was seen depends on the method and setting. Some binding calls cover weakened binding; strength is not graded here.

The chains behind the UniProt entries cited, without tags or fusion partners. Where a name states a change or a piece, a line headed by the entry shows the natural chain unless it says otherwise. A line that says so, or that is headed by a name, gives the form on record, which may keep a tag or linker. Residues count along the entry.
CXCL-12α (P48061, residues 22-89): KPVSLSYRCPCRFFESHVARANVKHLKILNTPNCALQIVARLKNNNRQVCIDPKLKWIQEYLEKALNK
CXCL-12γ (P48061, form named): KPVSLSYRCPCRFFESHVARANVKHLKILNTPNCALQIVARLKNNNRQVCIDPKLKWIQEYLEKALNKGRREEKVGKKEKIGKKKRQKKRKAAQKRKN
UniProt P09038, residues 143-288: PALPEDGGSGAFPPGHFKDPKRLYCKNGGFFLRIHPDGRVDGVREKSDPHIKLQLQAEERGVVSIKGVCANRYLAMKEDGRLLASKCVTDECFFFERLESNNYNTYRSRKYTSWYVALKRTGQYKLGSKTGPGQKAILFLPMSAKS
vascular endothelial growth factor (VEGF)-A165 (P15692, form named): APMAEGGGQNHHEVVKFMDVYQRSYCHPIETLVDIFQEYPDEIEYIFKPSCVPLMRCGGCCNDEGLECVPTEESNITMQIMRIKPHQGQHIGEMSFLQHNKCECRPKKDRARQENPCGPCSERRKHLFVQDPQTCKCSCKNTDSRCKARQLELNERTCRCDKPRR
recombinant human VEGF-A145 (P15692, form named): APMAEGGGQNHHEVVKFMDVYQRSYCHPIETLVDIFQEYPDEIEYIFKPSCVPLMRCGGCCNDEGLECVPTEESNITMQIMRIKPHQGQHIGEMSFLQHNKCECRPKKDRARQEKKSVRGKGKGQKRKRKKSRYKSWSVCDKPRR
UniProt P01127, residues 82-190: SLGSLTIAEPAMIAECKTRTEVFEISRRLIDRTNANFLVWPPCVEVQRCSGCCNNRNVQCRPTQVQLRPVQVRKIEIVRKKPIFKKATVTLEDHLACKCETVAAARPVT
placental growth factor (PlGF)-2 (P49763, form named): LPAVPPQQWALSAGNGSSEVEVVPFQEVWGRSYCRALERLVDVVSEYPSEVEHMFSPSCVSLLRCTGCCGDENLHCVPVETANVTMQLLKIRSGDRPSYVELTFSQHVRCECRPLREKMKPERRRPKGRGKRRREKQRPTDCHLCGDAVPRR
UniProt O75056, residues 48-387: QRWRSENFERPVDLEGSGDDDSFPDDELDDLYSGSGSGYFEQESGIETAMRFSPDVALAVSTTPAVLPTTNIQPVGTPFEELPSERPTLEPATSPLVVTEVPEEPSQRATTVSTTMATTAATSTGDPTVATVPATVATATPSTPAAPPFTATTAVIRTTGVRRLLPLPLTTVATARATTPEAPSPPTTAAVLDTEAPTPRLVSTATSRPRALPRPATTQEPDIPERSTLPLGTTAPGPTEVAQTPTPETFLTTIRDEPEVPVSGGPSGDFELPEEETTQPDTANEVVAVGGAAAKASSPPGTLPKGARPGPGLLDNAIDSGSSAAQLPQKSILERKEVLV

Key:
[1] = target: CXCL-12α (human) (UniProt P48061); assay: ELISA; vWF A1 HBD peptide coated (10 µg/mL, legend paragraph 67), 1 µg/mL CXCL-12α in solution, detected with anti-CXCL-12 antibody [panel C]
[2] = target: fibroblast growth factor (FGF)-2 (human) (UniProt P09038); assay: ELISA, HBD peptide coated, GF 1 µg/mL
[3] = target: vascular endothelial growth factor (VEGF)-A165 (human) (UniProt P15692); assay: ELISA, HBD peptide coated, GF 1 µg/mL
[4] = target: CXCL-12γ (human) (UniProt P48061); assay: ELISA, HBD peptide coated, GF 1 µg/mL
[5] = target: platelet-derived growth factor (PDGF)-BB (human) (UniProt P01127); assay: ELISA, HBD peptide coated, GF 1 µg/mL
[6] = target: placental growth factor (PlGF)-2 (human) (UniProt P49763); assay: ELISA, HBD peptide coated, GF 1 µg/mL
[7] = target: recombinant human syndecan-3 (human) (UniProt O75056); assay: ELISA, peptide coated, syndecan 1 µg/mL, anti-His detection
[8] = target: recombinant human VEGF-A145 (human) (UniProt P15692); assay: ELISA, peptide coated 50 nM, VEGF-A 1 µg/mL
[9] = target: vascular endothelial growth factor (VEGF)-A165 (human) (UniProt P15692); assay: ELISA, peptide coated 50 nM, VEGF-A 1 µg/mL

## YIGLKDRKRPSELRRIASQVKYA [vWF A1 HBD peptide (23 residues)]
[1]
  binding: binds
[2]
  binding: binds
[3]
  binding: binds
[4]
  binding: binds
[5]
  binding: binds
[6]
  binding: binds

## RLVFALGTDGKKLRIKSKEKCNDGK [laminin α3 3043-3067 peptide (LG4)]
[7]
  binding: binds

## TLFLAHGRLVYMFNVGHKKLKIR [laminin α4 1521-1543 peptide (LG4)]
[7]
  binding: binds

## PLFLLHKKGKNLSKPKASQNKKGGKSK [laminin α4 1408-1434 peptide (Linker)]
[7]
  binding: binds

## RQRSRPGRWHKVSVRWEKNR [laminin α5 3417-3436 peptide (LG4)]
[7]
  binding: binds

## TPGLGPRGLQATARKASRRSRQPARHPACML [laminin α5 3300-3330 peptide (Linker)]
[7]
  binding: binds

## YIGLKDRKRPSELRRIASQVKYAC [vWF A1 HBD (24 residues, C-terminal Cys)]
[8]
  binding: binds
[9]
  binding: binds
